Data as given in PubChem BioAssay AID1259254 (NCATS, 2017).
Screen: 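Gene knock-downs that lead to re-replication, shown by excess G2 DNA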 (primary screen). Cells: human HCT116 colorectal cancer cells. Knock-down reagent: single siRNA against human genes. Time to read-out: 3 days. Read-out: 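Nuclei stained with Hoechst and imaged; cell-cycle phase assigned by DNA content; G2 share scaled per plate, non-targeting siRNA 0%, GMNN siRNA 100%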. Scale: G2 robust z-score: higher = more G2 cells, more excess DNA replication. Call rule: 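An siRNA counts as active if its G2 robust z-score lies at least 5 MADs above the screen median; here such calls match roughly 38% of GMNN control or more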.
The whole screen tested about 59,000 reagents; below is a part drawn at random. About 1,550 of all reagents (2.6%) count as active. 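G2 share is only a proxy for re-replication; each gene was hit by three separate siRNAs, and active genes were retested.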 Reagents against one gene are numbered here. Further read-outs or replicates are left out here. Not given: the amount of reagent.

After knock-down of TAF1C #1, the record shows G2 robust z-score -0.0648; inactive. For TAF1C #2, the values are G2 robust z-score 0.874; inactive. Against TAF1C #3, the entry reads G2 robust z-score -0.75; inactive. Knock-down of KCTD8 #1 resulted in: G2 robust z-score 0.0432; inactive. KCTD8 #2 showed G2 robust z-score 2.82; inactive. Knock-down of KCTD8 #3 gave: G2 robust z-score 0.116; inactive.

Laid out differently: 2 of the entries above.
| gene | reagent | G2 robust z-score | call |
| --- | --- | --- | --- |
| TAF1C | 2 | 0.874 | inactive |
| TAF1C | 3 | -0.75 | inactive |

Further entries follow:
MOB1A #1 gave G2 robust z-score -0.0259; inactive. With knock-down of MOB1A #2 the results were G2 robust z-score -0.563; inactive. Against MOB1A #3, the values are G2 robust z-score -0.733; inactive. Against FBXL17 #1 the deposit lists G2 robust z-score 0.35; inactive. Silencing of FBXL17 #2 resulted in: G2 robust z-score 2.92; inactive. With knock-down of FBXL17 #3, the record shows G2 robust z-score 1.69; inactive.
